Results on one compound are retold here after publication PMC2225441, “Partial Restoration of Mutant Enzyme Homeostasis in Three Distinct Lysosomal Storage Disease Cell Lines by Altering Calcium Homeostasis” (PLoS Biology, 2008).

This assay relates to L444P GC. Put plainly: intact cell GC activity assay in homozygous L444P GC patient-derived fibroblasts. The class given is cell-based, human. The settings on record: only the named compounds increased activity.

Regarding `COC(=O)C1=C(C)NC(C)=C(C(=O)OC)C1c1ccccc1[N+](=O)[O-]` [nifedipine], the “L444P GC activity, screen of VGCC blockers, ionotropic glutamate receptor inhibitors and other calcium channel blockers” value is “only diltiazem and verapamil”.
